This is an account of results in PMC7862700.

By UniProt entry, the sequences of proteins in these tests, tags left out. Where a name states a change or a piece, a line headed by the entry shows the natural chain unless it says otherwise.
UniProt P32519: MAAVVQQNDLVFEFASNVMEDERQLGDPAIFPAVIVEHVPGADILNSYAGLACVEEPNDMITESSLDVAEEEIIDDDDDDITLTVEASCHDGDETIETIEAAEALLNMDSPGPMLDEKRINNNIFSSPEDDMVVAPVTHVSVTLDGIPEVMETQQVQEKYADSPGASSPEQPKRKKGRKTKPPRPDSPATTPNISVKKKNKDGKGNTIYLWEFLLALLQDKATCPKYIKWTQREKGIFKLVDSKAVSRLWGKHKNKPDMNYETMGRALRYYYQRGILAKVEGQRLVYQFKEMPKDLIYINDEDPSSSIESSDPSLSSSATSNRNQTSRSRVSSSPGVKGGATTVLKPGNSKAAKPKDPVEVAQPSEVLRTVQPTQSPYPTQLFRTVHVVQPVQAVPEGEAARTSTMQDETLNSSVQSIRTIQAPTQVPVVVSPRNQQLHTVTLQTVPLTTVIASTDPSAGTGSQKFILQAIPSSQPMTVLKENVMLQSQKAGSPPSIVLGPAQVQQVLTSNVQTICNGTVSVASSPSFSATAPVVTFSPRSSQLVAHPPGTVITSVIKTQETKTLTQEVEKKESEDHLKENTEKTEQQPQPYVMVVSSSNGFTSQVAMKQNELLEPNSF
UniProt P50549: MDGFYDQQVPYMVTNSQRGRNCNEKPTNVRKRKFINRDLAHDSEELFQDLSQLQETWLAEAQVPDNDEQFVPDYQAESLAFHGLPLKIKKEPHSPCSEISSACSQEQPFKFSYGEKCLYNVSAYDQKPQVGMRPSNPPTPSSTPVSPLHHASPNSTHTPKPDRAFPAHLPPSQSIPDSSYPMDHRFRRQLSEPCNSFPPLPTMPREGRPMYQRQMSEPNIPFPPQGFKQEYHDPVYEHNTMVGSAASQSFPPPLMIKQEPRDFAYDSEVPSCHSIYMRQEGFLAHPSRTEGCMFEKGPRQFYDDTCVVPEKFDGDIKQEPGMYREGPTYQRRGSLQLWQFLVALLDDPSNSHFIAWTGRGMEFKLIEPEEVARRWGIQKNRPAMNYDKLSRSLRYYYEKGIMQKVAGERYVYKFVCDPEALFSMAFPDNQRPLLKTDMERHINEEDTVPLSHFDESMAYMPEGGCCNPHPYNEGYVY

Assay in all cases: DAPPL (digital affinity profiling via proximity ligation, sequencing)
Common to all, as to settings: 10 mM Tris-HCl pH 7.5, 50 mM NaCl, 1 mM DTT, 4% glycerol, room temperature, 30 min; GST-TFs on glutathione beads, 16-mer random dsDNA library, 0.1% …; high values mean tight binding; double strand, one strand shown; scale: fold enrichment (6-mer frequency, TF over GST control)

Assay [1] concerns the target T1, ERG (UniProt P11308).
T1 sequence: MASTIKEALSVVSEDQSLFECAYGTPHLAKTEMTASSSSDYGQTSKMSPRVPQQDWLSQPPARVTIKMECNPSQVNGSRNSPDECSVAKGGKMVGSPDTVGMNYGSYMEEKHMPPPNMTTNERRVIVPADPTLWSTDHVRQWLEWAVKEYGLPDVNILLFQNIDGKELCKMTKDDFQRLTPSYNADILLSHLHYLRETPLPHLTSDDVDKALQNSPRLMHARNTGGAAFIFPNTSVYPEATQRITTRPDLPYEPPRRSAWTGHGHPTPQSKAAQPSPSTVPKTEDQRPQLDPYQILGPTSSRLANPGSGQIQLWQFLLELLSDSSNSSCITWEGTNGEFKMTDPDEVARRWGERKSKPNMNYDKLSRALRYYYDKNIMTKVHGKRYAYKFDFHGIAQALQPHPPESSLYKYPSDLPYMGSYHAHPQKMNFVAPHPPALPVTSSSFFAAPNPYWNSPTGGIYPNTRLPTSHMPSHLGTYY

Assay [2] addresses ELF1 (UniProt P32519).
Assay [3] addresses T2, ELK4 (UniProt P28324-2).
T2 sequence: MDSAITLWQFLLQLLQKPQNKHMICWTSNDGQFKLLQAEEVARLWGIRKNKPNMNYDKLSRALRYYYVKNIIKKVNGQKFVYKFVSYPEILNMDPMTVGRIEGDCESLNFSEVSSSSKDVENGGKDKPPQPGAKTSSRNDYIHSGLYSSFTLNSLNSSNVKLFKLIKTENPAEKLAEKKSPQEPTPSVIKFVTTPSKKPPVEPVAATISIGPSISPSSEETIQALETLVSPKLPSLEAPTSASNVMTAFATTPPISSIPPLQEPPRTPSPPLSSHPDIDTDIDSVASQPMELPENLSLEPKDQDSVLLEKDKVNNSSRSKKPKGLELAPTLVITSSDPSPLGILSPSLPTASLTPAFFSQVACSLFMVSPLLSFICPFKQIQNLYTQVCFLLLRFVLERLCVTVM

The target of assay [4] is T3, ETV4 (UniProt P43268).
T3 sequence: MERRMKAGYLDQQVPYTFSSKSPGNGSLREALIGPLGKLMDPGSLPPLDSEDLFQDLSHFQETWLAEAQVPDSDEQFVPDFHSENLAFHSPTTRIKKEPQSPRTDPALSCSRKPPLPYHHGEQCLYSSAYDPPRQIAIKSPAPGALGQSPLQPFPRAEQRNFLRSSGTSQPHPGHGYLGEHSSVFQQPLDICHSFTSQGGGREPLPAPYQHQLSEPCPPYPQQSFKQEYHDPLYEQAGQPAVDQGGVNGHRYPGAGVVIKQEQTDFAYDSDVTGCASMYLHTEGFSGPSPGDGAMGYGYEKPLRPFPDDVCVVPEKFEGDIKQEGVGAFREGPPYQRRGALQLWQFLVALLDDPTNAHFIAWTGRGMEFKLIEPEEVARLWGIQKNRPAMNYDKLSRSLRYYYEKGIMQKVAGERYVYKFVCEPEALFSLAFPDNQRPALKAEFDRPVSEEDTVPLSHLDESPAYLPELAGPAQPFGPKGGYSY

Assay [5] concerns the target T4, ERF (UniProt P50548).
T4 sequence: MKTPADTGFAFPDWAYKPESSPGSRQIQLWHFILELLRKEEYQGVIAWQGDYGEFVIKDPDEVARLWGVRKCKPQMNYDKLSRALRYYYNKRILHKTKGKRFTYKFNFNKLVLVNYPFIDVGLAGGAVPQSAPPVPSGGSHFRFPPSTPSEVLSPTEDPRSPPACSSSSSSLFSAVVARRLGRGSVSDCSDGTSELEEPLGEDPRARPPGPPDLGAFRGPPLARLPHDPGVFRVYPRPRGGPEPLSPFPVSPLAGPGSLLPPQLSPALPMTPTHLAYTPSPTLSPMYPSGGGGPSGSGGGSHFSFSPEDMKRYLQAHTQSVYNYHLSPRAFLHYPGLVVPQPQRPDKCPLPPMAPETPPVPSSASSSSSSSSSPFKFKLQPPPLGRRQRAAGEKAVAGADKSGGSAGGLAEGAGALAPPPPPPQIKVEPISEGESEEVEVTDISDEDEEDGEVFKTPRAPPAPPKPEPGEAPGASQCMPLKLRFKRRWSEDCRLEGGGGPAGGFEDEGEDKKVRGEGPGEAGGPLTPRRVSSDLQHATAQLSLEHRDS

For assay [6], the target named is ETV1 (UniProt P50549).

The list shows a part of the results, in another mix than the full data. For some assays here: At the low end of the ranking, values are background and their order means little. Some of the results follow. For some assays here: The exact form of the protein is not confirmed.

AGCTCG: the binding signal was found to be 0.965 in assay [1], 0.974 in assay [2], 0.983 in assay [3] and 0.933 in assay [4].
The like results for TCGTCA were, in that order, 0.992, 1.04, 0.992 and 1.05.
On to ATAGCC, for which the binding signal amounted to 0.984 in assay [1], 1.05 in assay [2], 0.979 in assay [3] and 1.06 in assay [4].
The like results for GCCGAT were, in that order, 1.03, 1.03, 1.13 and 1.09.
Consider CATAAA, for which the binding signal in assay [1] amounted to 0.998; in assay [2] it was 0.967; in assay [3] it was 0.973; in assay [4] it was 1.05; in assay [5], 0.993.
AGCCTA: the binding signal in assay [3] was 1.17; in assay [4], 1.07; in assay [6], 1.12.
Regarding TTACCA, the binding signal in assay [1] was found to be 1.11; in assay [2], 1.13; in assay [3], 1.04; in assay [4], 1.01.
With AGTAAA, the binding signal in assay [1] came to 0.954; in assay [2] it was 0.974; in assay [3], 0.979; in assay [4], 0.965.
Turning to ACCTTC, the binding signal in assay [1] amounted to 2.03; in assay [2], 1.92; in assay [3], 2.06; in assay [4] it was 1.95.
With GCACAC, the binding signal in assay [1] is 0.965; in assay [2] it was 1.02; in assay [3], 0.882; in assay [4], 1.02.
As for GACGAC, the binding signal in assay [1] was determined as 0.939; in assay [2] it was 0.915; in assay [3], 1; in assay [4], 1.06; in assay [5] it was 0.944.
Consider TCCCAT, for which the binding signal in assay [1] turned out to be 1.45; in assay [2], 1.44; in assay [3], 1.27; in assay [4] it was 1.36.
The like results for CTCCCA were, in that order, 1.38, 1.41, 1.44 and 1.49.
The like results for AGTAGC were, in that order, 0.939, 0.971, 0.946 and 1.03.
With GGGTAT, the binding signal in assay [1] stood at 0.972; in assay [2], 0.938; in assay [3] it was 1.1; in assay [4] it was 0.904; in assay [5], 0.908.
Turning to TTGTCA, the binding signal in assay [1] is 0.978; in assay [2] it was 1.13; in assay [3] it was 1.21; in assay [4], 1.17.
The like results for GGCTTG were, in that order, 1.09, 0.973, 1.12 and 1.13.
In the case of GATTCG, the binding signal is 0.904 in assay [1]; 0.985 in assay [2]; 0.878 in assay [3]; 1.04 in assay [4]; 0.917 in assay [5].
The like results for GTCCTG were, in that order, 1.17, 1.15, 0.974, 1.14 and 1.08.
Turning to GTCAAA, the binding signal in assay [1] is 0.997; in assay [2] it was 0.946; in assay [3], 0.987; in assay [4], 0.938; in assay [5], 0.887.
The like results for ATGAGG were, in that order, 0.951, 0.95, 0.905, 0.878 and 0.984.
The like results for GGCTCG were, in that order, 1.02, 1.05, 1.11, 1.06 and 0.987.
Take AGTTTA: the binding signal came to 0.955 in assay [1], 0.983 in assay [2], 0.946 in assay [3] and 0.956 in assay [4].
The like results for GATCAA were, in that order, 0.996, 1.04, 0.928 and 0.969.
GGGTTT: the values for the binding signal in assay [3], in assay [4] and in assay [6] were 1.12, 1.01 and 1.1, respectively.
In the case of TTGATC, the binding signal was determined as 1.14 in assay [3], 1.28 in assay [4] and 1.15 in assay [6].
The like results for CGCCCA were, in that order, 1.04, 1.02 and 0.938.
Take AAACCG: the binding signal in assay [3] was 0.918; in assay [4] it was 1.03; in assay [6], 1.18.
The like results for CTTTAT were, in that order, 1.29, 1.26 and 1.22.
The like results for GGACTT were, in that order, 1.08, 1.17 and 1.22.
The like results for GCTGGT were, in that order, 1.45, 1.27 and 1.02.
Consider CCGAAC, for which the binding signal in assay [3] was 1.25; in assay [4], 1.25; in assay [6], 1.19.
With TTCGGT, the binding signal was found to be 1.21 in assay [3], 1.12 in assay [4] and 1.23 in assay [6].
The like results for CGTCGC were, in that order, 0.985, 1.08 and 1.3.
For AGCGCC, the binding signal in assay [3] is 1.11; in assay [4], 1.09; in assay [6], 0.957.
On to CCGTAT, for which the binding signal was 1.27 in assay [3], 1.1 in assay [4] and 1.19 in assay [6].
The like results for CGTTGT were, in that order, 1.14, 1.04 and 0.926.
In the case of CCAACA, the binding signal came out at 1.08 in assay [3], 1.09 in assay [4] and 1.04 in assay [6].
The like results for TCTAGG were, in that order, 0.997, 1.07 and 0.953.
The like results for GAAGTC were, in that order, 0.984, 1.16 and 1.22.
The like results for AAGTGC were, in that order, 1.21, 1.41 and 1.25.
As to GAATGT, the binding signal in assay [3] was 1.07; in assay [4], 1.06; in assay [6], 1.03.
The like results for GCACGC were, in that order, 1.05, 1.15 and 1.16.
The like results for AATTGA were, in that order, 1.18, 1.15 and 1.21.
For CTTACA, the binding signal in assay [3] came out at 1.3; in assay [4], 1.25; in assay [6] it was 1.24.
The like results for CTCGGG were, in that order, 0.999, 1.08 and 1.03.
On to TACAGA, for which the values for the binding signal in assay [3], in assay [4] and in assay [6] were 1.1, 1.1 and 1.16, respectively.
For the sequence AGATTT, the figures for the binding signal in assay [3], in assay [4] and in assay [6] were 1.25, 1.15 and 1.15, respectively.
Consider CCCAAG, for which the binding signal in assay [3] stood at 0.898; in assay [4] it was 0.868; in assay [6] it was 0.846.
The like results for GGCACT were, in that order, 1.28, 1.29 and 1.38.
The like results for CAAGCA were, in that order, 1.14, 1.07 and 1.1.
For TATGAC, the binding signal was found to be 1.45 in assay [3], 1.39 in assay [4] and 1.26 in assay [6].
The like results for CCCCGT were, in that order, 0.948, 1.05 and 1.
The like results for ATCACA were, in that order, 1.02, 1.07 and 1.04.
For the sequence CCACCG, the binding signal stood at 0.992 in assay [3], 1.11 in assay [4] and 0.994 in assay [6].
The like results for ATATCA were, in that order, 1.16, 1.18 and 1.14.
For the sequence TTGTAA, the values for the binding signal in assay [3], in assay [4] and in assay [6] were 1.36, 1.32 and 1.31, respectively.
The like results for ACTAGA were, in that order, 0.891, 0.974 and 0.933.
The like results for ACAGCA were, in that order, 1.02, 1.06 and 0.979.
For the sequence CTATGC, the binding signal in assay [3] came to 1.38; in assay [4] it was 1.55; in assay [6], 1.55.
Regarding AGTGCA, the binding signal in assay [3] was determined as 0.991; in assay [4], 1.09; in assay [6] it was 1.11.
The like results for GACTAC were, in that order, 1.18, 1.13 and 1.17.
The like results for CGTACC were, in that order, 1.18, 1.19 and 1.26.
With CATACC, the binding signal in assay [3] is 0.9; in assay [4] it was 1.04; in assay [6], 0.993.
For the sequence TAACTA, the binding signal in assay [2] was found to be 1.32; in assay [3], 1.26; in assay [4], 1.31; in assay [6] it was 1.24; in assay [5], 1.38.
As to CCCGCG, the binding signal in assay [2] stood at 0.975; in assay [3], 0.954; in assay [4], 0.957; in assay [6], 0.928; in assay [5], 0.921.
